In publication doi:10.1101/2024.02.14.580405:
Results are given in words; binding and its absence hold for the method and conditions named. Binding seen in cells or lysates may run through a third protein. Some binding calls cover weakened binding; strength is not graded here.

Legend:
[1] = biological target: T1, dopamine D4 receptor (D4R) (mouse (endogenous in mouse kidney and mouse DCT cells)) (UniProt P51436); test: co-IP
T1 sequence: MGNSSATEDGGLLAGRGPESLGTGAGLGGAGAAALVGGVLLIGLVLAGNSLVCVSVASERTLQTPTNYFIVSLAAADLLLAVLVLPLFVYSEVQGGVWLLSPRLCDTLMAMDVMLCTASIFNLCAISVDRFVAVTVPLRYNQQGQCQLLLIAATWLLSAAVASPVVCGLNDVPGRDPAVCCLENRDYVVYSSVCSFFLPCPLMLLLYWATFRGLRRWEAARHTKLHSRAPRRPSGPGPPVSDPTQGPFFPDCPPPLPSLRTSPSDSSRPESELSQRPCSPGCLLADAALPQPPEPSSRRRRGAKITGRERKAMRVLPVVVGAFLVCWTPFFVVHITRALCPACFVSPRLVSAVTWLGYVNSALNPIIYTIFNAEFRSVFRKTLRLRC

[2] = biological target: T1, dopamine D4 receptor (D4R) (mouse (endogenous in mouse kidney and mouse DCT cells)); test: FRET or BRET
[3] = biological target: T2, ubiquitin-specific-protease 48 (USP48) (mouse (endogenous in mouse kidney)) (UniProt Q3V0C5); test: co-IP
T2 sequence: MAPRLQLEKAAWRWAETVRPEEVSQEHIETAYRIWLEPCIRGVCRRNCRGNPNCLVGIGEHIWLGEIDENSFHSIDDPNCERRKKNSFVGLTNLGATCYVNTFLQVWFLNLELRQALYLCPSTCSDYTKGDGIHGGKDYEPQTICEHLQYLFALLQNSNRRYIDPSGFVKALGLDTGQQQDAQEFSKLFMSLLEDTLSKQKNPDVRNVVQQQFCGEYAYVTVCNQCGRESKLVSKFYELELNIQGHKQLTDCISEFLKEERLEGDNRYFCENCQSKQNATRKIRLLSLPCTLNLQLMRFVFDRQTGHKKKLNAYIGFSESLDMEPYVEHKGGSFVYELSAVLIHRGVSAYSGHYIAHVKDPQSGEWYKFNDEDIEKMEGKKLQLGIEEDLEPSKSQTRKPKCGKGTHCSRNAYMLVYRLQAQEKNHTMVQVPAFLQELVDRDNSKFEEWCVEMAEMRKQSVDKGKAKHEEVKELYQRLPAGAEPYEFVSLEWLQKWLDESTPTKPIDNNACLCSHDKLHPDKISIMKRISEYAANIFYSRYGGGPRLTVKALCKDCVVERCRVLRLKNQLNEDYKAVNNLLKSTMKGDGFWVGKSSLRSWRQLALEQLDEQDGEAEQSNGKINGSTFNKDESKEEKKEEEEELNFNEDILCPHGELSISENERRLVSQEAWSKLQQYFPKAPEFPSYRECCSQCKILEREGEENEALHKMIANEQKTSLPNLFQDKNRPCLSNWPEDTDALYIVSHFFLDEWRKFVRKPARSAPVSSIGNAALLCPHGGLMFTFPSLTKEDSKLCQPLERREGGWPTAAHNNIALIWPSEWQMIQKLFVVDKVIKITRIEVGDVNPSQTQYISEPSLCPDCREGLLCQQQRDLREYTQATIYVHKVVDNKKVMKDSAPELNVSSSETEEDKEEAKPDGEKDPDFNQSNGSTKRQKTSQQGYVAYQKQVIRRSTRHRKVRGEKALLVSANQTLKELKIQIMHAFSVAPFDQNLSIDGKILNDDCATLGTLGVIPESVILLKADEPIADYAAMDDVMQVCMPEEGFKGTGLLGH

[4] = biological target: T1, dopamine D4 receptor (D4R) (mouse (endogenous in mouse kidney and mouse DCT cells)); test: co-IP; remark: listed apart in the source

Measured: binding

B1: thiazide-sensitive sodium chloride cotransporter (NCC) (protein, UniProt P59158 1-1002)
chain: MAELPVTELPGDALCSGRFTISTLMGGDEPPPAACDSSQPSHLTHGSTLYMRTFGYNTIDVVPAYEHYANSALPGEPRKVRPTLADLHSFLKQEGSHLHALAFDGRQGRELTDGLVEDETGTNSEKSPGEPVRFGWVKGVMIRCMLNIWGVILYLRLPWITAQAGIVLTWLIILLSVMVTSITGLSISAISTNGKVKSGGTYFLISRSLGPELGGSIGLIFAFANAVGVAMHTVGFAETVRDLLQEYGTPIVDPINDIRIIGVVTVTVLLAISLAGMEWESKAQVLFFLVIMVSFANYLVGTLIPASEDKASKGFYSYHGDIFVQNLVPDWRGIDGSFFGMFSIFFPSATGILAGANISGDLKDPAVAIPKGTLMAIFWTTISYLAISATIGSCVVRDASGDVNDTMTPGPGPCEGLACGYGWNFTECSQQRSCRYGLINYYQTMSMVSAFAPLITAGIFGATLSSALACLVSAAKVFQCLCEDQLYPLIGFFGKGYGKNREPVRGYLLAYAIAVAFIIIAELNTIAPIISNFFLCSYALINFSCFHASITNSPGWRPSFRYYSKWAALFGAVISVVIMFLLTWWAALIAIGVVLFLLLYVIYKKPEVNWGSSVQAGSYNLALSYSVGLNEVEDHIKNYRPQCLVLTGPPNFRPALVDFVSTFTQNLSLMICGHVLIGPGKQRVPELRLIASGHTKWLNKRKIKAFYSDVIAEDLRSGVQILMQASGLGRMKPNILVVGFKRNWQSAHPATVEDYIGVLHDAFDFNYGVCVMRMREGLNVSEALQTHTTPEALIQEEQASTIFQSEQGKKTIDIYWLFDDGGLTLLIPYLLHRKKRWGKCKIRVFVGGQINRMDEERKAIISLLSKFRLGFHEVHVLPDINQKPQAEHTKRFEDMIAPFRLNDGFKDEATVTEMRRDCPWKISDEEINKNRIKSLRQVRLSEILLDYSRDAALIILTLPIGRKGKCPSSLYMAWLETLSQDLRPPVLLIRGNQENVLTFYCQ
binds: all assays above
